From PubChem BioAssay record AID1053133 (Broad Institute, 2014).

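Plate-reader measure of the Venus reporter marking one vaccinia stage in infected cells (the cell line is not named here); read time unknown. The test concentration is not given here. Percent change in Venus reporter signal; lower (more negative) values mean stronger inhibition of that viral stage.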

Values are in %. How 0% and 100% were set is not given here. Common to all entries: measured here: Venus reporter, other viral stage. Part of the compounds only, not a random draw; the main read-out is not listed here.

structure,activity change (Venus) (%)
Cc1ccc(S(=O)(=O)Nc2ccc3c(c2)C(=O)N([C@@H](C)CO)C[C@@H](C)[C@@H](CN(C)Cc2ccc(Cl)c(Cl)c2)O3)cc1,-46.7
C[C@H]1CN([C@@H](C)CO)S(=O)(=O)c2ccc(/C=C/c3ccccc3)cc2O[C@@H]1CN(C)C(=O)NC1CCCCC1,-41.53
Cc1noc(C)c1S(=O)(=O)Nc1ccc2c(c1)C(=O)N([C@H](C)CO)C[C@H](C)[C@H](CN(C)C(=O)Nc1ccc(C(F)(F)F)cc1)OCCCC[C@H](C)O2,-24.87
Cc1ccc(S(=O)(=O)Nc2ccc3c(c2)C(=O)N([C@H](C)CO)C[C@@H](C)[C@@H](CN(C)Cc2ccc(C(F)(F)F)cc2)OCCCC[C@@H](C)O3)cc1,-48.26
Cc1ccc(-c2ccc([C@H]3[C@@H](CO)N4C(=O)CN(C(=O)Nc5cccc(F)c5)C[C@@H]34)cc2)cc1,-37.27
C[C@@H]1CN([C@@H](C)CO)C(=O)Cc2cc(NC(=O)CCCCCC(=O)Nc3ccccc3N)ccc2O[C@@H]1CN(C)CC1CCCCC1,-44.57
C[C@H](CO)N1C[C@H](C)[C@H](CN(C)Cc2ccc(C(F)(F)F)cc2)OCc2ccccc2-c2c(n(C)c3ccccc23)C1=O,-35.97
C[C@@H]1CN([C@H](C)CO)S(=O)(=O)c2ccc(C3=CCCC3)cc2O[C@@H]1CN(C)Cc1ccccc1,-46.04
C[C@H]1CCCCO[C@H](CN(C)C(=O)CCC(F)(F)F)[C@@H](C)CN([C@@H](C)CO)C(=O)c2cc(NC(=O)NC3CCCCC3)ccc2O1,-33.44
C[C@H](CO)N1C[C@H](C)[C@H](CN(C)C(=O)Nc2cccc(F)c2)Oc2cc(C#CC3(O)CCCC3)ccc2S1(=O)=O,-37.61
C[C@@H]1CN([C@H](C)CO)C(=O)c2cc(-c3ccc(C#N)cc3)cnc2O[C@@H]1CN(C)Cc1ccccn1,-38.72
CC(=O)N(C)C[C@H]1Oc2cc(C#Cc3ccc(F)cc3)ccc2S(=O)(=O)N([C@H](C)CO)C[C@H]1C,-42.32
N#Cc1cccc(-c2ccc([C@H]3[C@H]4CN(C(=O)Nc5cccc(F)c5)CCCCN4[C@H]3CO)cc2)c1,-28.08
C/C=C/c1ccc2c(c1)O[C@@H](CN(C)C(=O)Nc1cccc(F)c1)[C@@H](C)CN([C@@H](C)CO)S2(=O)=O,-35.5
COc1cccc(-c2ccc([C@@H]3[C@@H](CO)N4C(=O)CN(C(=O)C5CCOCC5)C[C@H]34)cc2)c1,-11.33
N#C[C@H]1[C@H](c2ccc(C#CC3CCCC3)cc2)[C@H](CO)N1C(=O)Nc1ccc(F)cc1,-75.56
CN(C)C(=O)c1ccc(-c2ccc([C@H]3[C@@H](C#N)N(C(=O)C4CCC4)[C@H]3CO)cc2)cc1,-48.16
CC(C)CC#Cc1ccc2c(c1)O[C@H](CN(C)C)[C@@H](C)CN([C@@H](C)CO)S2(=O)=O,-29.9
O=C(c1ccc(F)cc1)N1CCCCN2[C@H](CO)[C@H](c3ccc(/C=C/c4ccccc4)cc3)[C@H]2C1,-78.35
C[C@@H]1CN([C@H](C)CO)C(=O)c2cccc(NS(=O)(=O)c3ccc(F)cc3)c2O[C@@H]1CN(C)C(=O)Nc1ccc(C(F)(F)F)cc1,-40.63
O=C(Cc1cccnc1)N1CCCCN2[C@@H](CO)[C@H](c3ccc(/C=C/c4ccccc4)cc3)[C@@H]2C1,-40.11
C[C@@H]1CCCCO[C@H](CN(C)CC2CCCCC2)[C@@H](C)CN([C@H](C)CO)C(=O)c2cc(NC(=O)c3ccccc3)ccc2O1,-25.63
C[C@H]1CN([C@@H](C)CO)C(=O)c2c(c3ccccc3n2C)-c2ccccc2CO[C@@H]1CN(C)C(=O)Cc1ccccc1,-61.41
CCCNC(=O)N1[C@H](CO)[C@H](c2ccc(C3=CCCCC3)cc2)[C@@H]1CNC(C)C,-27.15
COc1ccccc1C#Cc1cnc2c(c1)C(=O)N([C@H](C)CO)C[C@@H](C)[C@@H](CN(C)C(=O)c1ccc3c(c1)OCO3)O2,-34.03
CNC[C@H]1Oc2cc(C#CCC3CCCC3)ccc2S(=O)(=O)N([C@@H](C)CO)C[C@@H]1C,-41.01
CC(C)CC#Cc1cnc2c(c1)C(=O)N([C@H](C)CO)C[C@@H](C)[C@H](CN(C)Cc1ccc3c(c1)OCO3)O2,-53.8
Cc1ccc(-c2ccc([C@@H]3[C@H]4CN(C(=O)Nc5ccccc5)CCCCN4[C@H]3CO)cc2)cc1,-46.24
COc1cccc(NC(=O)N(C)C[C@H]2Oc3cc(-c4ccccc4OC)ccc3S(=O)(=O)N([C@H](C)CO)C[C@H]2C)c1,-29.74
C[C@H](CO)N1C[C@H](C)[C@H](CN(C)Cc2ccc(-c3ccccc3)cc2)Oc2ccc(NS(=O)(=O)c3ccc(Cl)cc3)cc2C1=O,-34.27
C[C@@H]1CN([C@@H](C)CO)C(=O)c2cc(NC(=O)Cc3cn(C)c4ccccc34)ccc2O[C@@H]1CN(C)Cc1ccc(-c2ccccc2)cc1,-26.53
CN(C)CC(=O)N[C@H]1C[C@@H]2O[C@@H](CO)CC[C@@H]2O[C@@H]1CCc1ccc(-c2ccc(F)cc2)cc1,-29.06
CCCN1[C@@H]2c3ccc(-c4ccc(F)cc4)c(=O)n3C[C@@H]2[C@@H](CO)[C@@H]1C(=O)N[C@@H](C)c1ccccc1,-33.98
C[C@@H]1CCCCO[C@H](CN(C)C(=O)C2CCCCC2)[C@H](C)CN([C@@H](C)CO)C(=O)c2cc(NC(=O)NC3CCCCC3)ccc2O1,-33.89
COc1ccc2c3c(n(C)c2c1)[C@H](CO)N(C(=O)CN(C)C)CC31CCN(Cc2nccs2)CC1,-37.29
C[C@@H]1CN([C@H](C)CO)C(=O)c2cc(C3=CCCC3)cnc2O[C@H]1CN(C)Cc1cccc(F)c1,-45.21
Cc1ccc(-c2ccc([C@H]3[C@@H](CO)N4CCCCN(S(=O)(=O)c5cccc(C)c5)C[C@H]34)cc2)cc1,-43.59
CC(=O)N(C)C[C@H]1Oc2cc(C#Cc3cccc(F)c3)ccc2S(=O)(=O)N([C@@H](C)CO)C[C@@H]1C,-31.51
C[C@H](CO)N1C[C@H](C)[C@@H](CN(C)Cc2ccc(Cl)c(Cl)c2)Oc2ccc(NS(C)(=O)=O)cc2CC1=O,-64.06
COc1ccc(CNC(=O)N(C)C[C@H]2OCc3ccccc3-c3c(n(C)c4ccccc34)C(=O)N([C@H](C)CO)C[C@@H]2C)cc1,-43.23
C[C@H]1CCCCO[C@@H](CN(C)Cc2ccccc2)[C@@H](C)CN([C@@H](C)CO)C(=O)c2cc(NS(=O)(=O)c3ccc(Cl)cc3)ccc2O1,-68.39
C(=C\c1ccc(C2[C@@H]3CN(Cc4cccnc4)C[C@H]2N3)cc1)/c1ccccc1 (some centres undefined),-73.33
COc1ccc(C#Cc2cnc3c(c2)C(=O)N([C@@H](C)CO)C[C@H](C)[C@@H](CN(C)CC2CCCC2)O3)cc1,-41.88
OC[C@H]1[C@@H](c2ccc(C#CC3(O)CCCC3)cc2)[C@@H]2CN(Cc3ccccc3F)CCCCN12,-46.92
COc1ccc2c3c(n(C)c2c1)[C@H](CO)N(C)CC31CCN(S(=O)(=O)c2cccc(F)c2)CC1,-28.4
CNC[C@@H]1Oc2cc(C#CC3CCCCC3)ccc2S(=O)(=O)N([C@@H](C)CO)C[C@@H]1C,-76.86
C[C@@H]1CN([C@H](C)CO)C(=O)Cc2cc(NC(=O)C3CC3)ccc2O[C@H]1CN(C)Cc1ccc(C(F)(F)F)cc1,-32.8
C[C@H](CO)N1C[C@H](C)[C@H](CN(C)C(=O)Nc2ccc3c(c2)OCO3)Oc2cc(C#Cc3ccncc3)ccc2S1(=O)=O,-43.2
C[C@H]1CCCCO[C@H](CN(C)S(=O)(=O)c2ccccc2)[C@@H](C)CN([C@@H](C)CO)C(=O)c2cc(NS(=O)(=O)c3ccccc3)ccc2O1,-35.63
COc1ccc2c3c([nH]c2c1)[C@@H](CO)N(Cc1ccccc1F)CC31CCN(CC2CC2)CC1,-39.92